PubChem BioAssay AID493246 – Drosophila RNAi Screening Center – 2011
The deposit covers about 21,000 reagents; below is a random part of those that have a named target and a result. Over the whole deposit, 429 (2%) were called active. 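Values are raw and not normalised between plates; calls rest on per-plate z-scores that were not deposited.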 Names joined by + are all predicted targets of the reagent. No sequences are given here. The record does not give: the amount of reagent, the time to read-out.

Aim: 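Genes fly cells need to grow and stay alive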 (primary screen)
Cell system: Drosophila Kc and S2R+ cells
Reagent: long dsRNA against Drosophila genes
Measurement: 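Raw, unnormalised count of remaining cells in each well; per-plate z-scores of cell number underlie the calls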
Reading the numbers: Kc cell number and S2R+ cell number: higher = more cells remaining
Call rule: 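Active when the per-plate z-score of cell number is 3 or more in the direction of fewer cells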

The first 2 entries as a preview:
| gene knocked down | amplicon | Kc cell number, rep 1 | Kc cell number, rep 2 | S2R+ cell number, rep 1 | S2R+ cell number, rep 2 | Outcome |
| --- | --- | --- | --- | --- | --- | --- |
| CG11581 | DRSC19407 | 1.50e6 | 1.53e6 | 1.07e6 | 1.14e6 | inactive |
| Tsp42Ea | DRSC04982 | 1.61e6 | 1.61e6 | 1.18e6 | 1.37e6 | inactive |

Results, from the first entry:
| gene knocked down | amplicon | Kc cell number, rep 1 | Kc cell number, rep 2 | S2R+ cell number, rep 1 | S2R+ cell number, rep 2 | Outcome |
| --- | --- | --- | --- | --- | --- | --- |
| CG11581 | DRSC19407 | 1.50e6 | 1.53e6 | 1.07e6 | 1.14e6 | inactive |
| Tsp42Ea | DRSC04982 | 1.61e6 | 1.61e6 | 1.18e6 | 1.37e6 | inactive |
| Tsp42Ea | DRSC06792 | 1.51e6 | 1.64e6 | 1.29e6 | 1.47e6 | inactive |
| CG18853 | DRSC06795 | 1.64e6 | 1.63e6 | 1.34e6 | 1.47e6 | inactive |
| CG5466 | DRSC15808 | 1.58e5 | 2.00e5 | 3.53e5 | 4.20e5 | active |
| twe | DRSC03628 | 1.32e6 | 1.32e6 | 1.37e6 | 1.36e6 | inactive |
| nemy | DRSC05357 | 1.51e6 | 1.53e6 | 1.02e6 | 1.25e6 | inactive |
| nemy | DRSC07262 | 1.62e6 | 1.72e6 | 9.91e5 | 1.14e6 | inactive |
| CG15740 | DRSC19706 | 7.11e5 | 1.15e6 | 4.75e5 | 4.09e5 | active |
| Spt5 | DRSC07556 | 1.65e6 | 1.63e6 | 8.14e5 | 9.23e5 | inactive |
| CG11417 | DRSC18581 | 5.16e5 | – | 8.75e5 | – | inactive |
| Fibp | DRSC11031 | 1.43e6 | 1.53e6 | 1.22e6 | 1.24e6 | inactive |
| CG12942 | DRSC06253 | 1.25e6 | 1.38e6 | 7.88e5 | 9.32e5 | inactive |
| CG15201 | DRSC19648 | 1.55e6 | 1.60e6 | 1.09e6 | 1.27e6 | inactive |
| CG1486 | DRSC20508 | 1.70e6 | 1.68e6 | 1.08e6 | 1.22e6 | inactive |
| Hrb27C | DRSC03347 | 1.40e6 | 1.44e6 | 6.67e5 | 7.44e5 | inactive |
| rost | DRSC03603 | 1.37e6 | 1.42e6 | 1.17e6 | 1.17e6 | inactive |
| Psf1 | DRSC08638 | 1.60e6 | 1.73e6 | 1.04e6 | 1.16e6 | inactive |
| CG17078 | DRSC00484 | 1.61e6 | 1.59e6 | 1.17e6 | 1.54e6 | inactive |
| CG17770 + Acam | DRSC14110 | 1.40e6 | 1.47e6 | 9.92e5 | 1.07e6 | inactive |
| CG17770 + Acam | DRSC15264 | 1.47e6 | 1.46e6 | 9.00e5 | 1.00e6 | inactive |
| Prosbeta5 | DRSC07517 | 1.09e6 | 1.16e6 | 7.01e5 | 8.05e5 | active |
| CYLD | DRSC02870 | 1.51e6 | 1.51e6 | 1.22e6 | 1.27e6 | inactive |
| CG9344 | DRSC04541 | 1.65e6 | 1.74e6 | 1.27e6 | 4.62e5 | inactive |
| Fsn | DRSC06875 | 1.31e6 | 1.42e6 | 1.06e6 | 1.08e6 | inactive |
| DIP-gamma | DRSC14873 | 5.01e5 | – | 8.05e5 | – | inactive |
| alpha-Est10 | DRSC12613 | 1.51e6 | 1.67e6 | 1.16e6 | 1.23e6 | inactive |
| CG30291 | DRSC03842 | 5.15e5 | – | 8.54e5 | – | inactive |
| Septin4 | DRSC20205 | 1.52e6 | 1.63e6 | 1.00e6 | 1.16e6 | inactive |
| Pgant8 | DRSC10801 | 1.35e6 | 1.46e6 | 1.33e6 | 1.43e6 | inactive |
| Tcs6 + PIG-P | DRSC13742 | 1.12e6 | 1.51e6 | 1.10e6 | 1.04e6 | inactive |
| Tcs6 + PIG-P | DRSC14893 | 1.71e6 | 1.61e6 | 1.07e6 | 1.21e6 | inactive |
| CG14657 | DRSC12219 | 1.84e6 | 1.93e6 | 1.38e6 | 1.49e6 | inactive |
| CG14657 | DRSC12243 | 1.62e6 | 1.68e6 | 1.17e6 | 1.29e6 | inactive |
| Fcp1 | DRSC04121 | 1.37e6 | 1.47e6 | 1.17e6 | 1.22e6 | inactive |
| SKIP | DRSC14713 | 1.19e6 | 1.18e6 | 1.06e6 | 1.16e6 | inactive |
| SKIP | DRSC14714 | 1.23e6 | 1.20e6 | 1.06e6 | 1.17e6 | inactive |
| SKIP | DRSC15864 | 1.28e6 | 1.43e6 | 1.02e6 | 1.10e6 | inactive |
| SKIP | DRSC16195 | 1.39e6 | 1.38e6 | 1.17e6 | 1.29e6 | inactive |
| SKIP | DRSC16196 | 1.39e6 | 1.38e6 | 1.01e6 | 1.16e6 | inactive |
